The results in this text go back to publication PMC8786502.

The chains behind the UniProt entries cited, without tags or fusion partners.
UniProt Q07812: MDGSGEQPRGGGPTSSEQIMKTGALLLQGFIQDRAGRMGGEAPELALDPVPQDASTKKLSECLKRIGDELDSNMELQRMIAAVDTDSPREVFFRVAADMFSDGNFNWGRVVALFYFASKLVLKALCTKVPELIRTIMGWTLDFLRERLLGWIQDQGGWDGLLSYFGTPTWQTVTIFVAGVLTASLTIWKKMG

The test has as its target BAX (endogenous, MCF-7 cells) (human (endogenous in MCF-7)) (UniProt Q07812). Put plainly: co-IP; MCF-7 cells treated with increasing concentrations of α-mangostin for 12 h; lysates in CHAPS buffer (20 mM Tris-HCl pH 7.5, 150 mM NaCl, 0.2% Nonidet P-40, 1 mM EDTA); polyclonal anti-BAX antibody N20 overnight at 4°C, Protein A agarose 4 h at 4°C; Western blot. (In general: A western blot detects proteins with antibodies after separation by electrophoresis.)

These are yes or no findings as the source states them, for the method shown. Binding seen in cells or lysates may run through a third protein. Some binding calls cover weakened binding; strength is not graded here.

B1: MOAP-1 (Modulator of apoptosis 1), endogenous, MCF-7 cells (protein, UniProt Q96BY2 1-351)
chain: MTLRLLEDWCRGMDMNPRKALLIAGISQSCSVAEIEEALQAGLAPLGEYRLLGRMFRRDENRKVALVGLTAETSHALVPKEIPGKGGIWRVIFKPPDPDNTFLSRLNEFLAGEGMTVGELSRALGHENGSLDPEQGMIPEMWAPMLAQALEALQPALQCLKYKKLRVFSGRESPEPGEEEFGRWMFHTTQMIKAWQVPDVEKRRRLLESLRGPALDVIRVLKINNPLITVDECLQALEEVFGVTDNPRELQVKYLTTYQKDEEKLSAYVLRLEPLLQKLVQRGAIERDAVNQARLDQVIAGAVHKTIRRELNLPEDGPAPGFLQLLVLIKDYEAAEEEEALLQAILEGNFT
Turning to B1, the binding result was “binds”.
